PubChem BioAssay AID1224827 – NIAID – 2016
Shown is one part, drawn at random, of about 3,800 reagents. About 2,200 of them (57%) were called active. 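Active means a strong reporter change in either direction; calls are per siRNA, not per gene; qiagen siRNAs gave weaker effects.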 Unmarked entries are inactive. The numbers tell different reagents against one gene apart. Not all columns of the deposit are shown.

Assay: 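Confirm genes whose knock-down changes LPS-driven TNF promoter activity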 (follow-up of hits)
Cells: RAW264.7 G9 mouse macrophage reporter clone
Reagents: single siRNA against mouse genes, 100 nM siRNA
Time to read-out: siRNA for 2 days, then LPS about 16 h
Treatment: bacterial lipopolysaccharide (LPS), 10 ng/ml, cells fixed after overnight (about 16 h) stimulation
Measurement: 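Imaged nuclear TNF reporter intensity, background removed, scaled per plate and to non-targeting control wells, as z-scores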
Reading the numbers: TNF reporter z-score, mean: higher = stronger Tnf promoter reporter signal
Call rule: 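Active siRNA: replicate-mean z-score of 2 or more, or -2 or less; no calls for control wells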

With Mtbp #1, what does the deposit list?
TNF reporter z-score, mean: -2.05 (active)

For Mtbp #2, what was measured?
TNF reporter z-score, mean: -2.58 (active)

With Mtbp #3, what was measured?
TNF reporter z-score, mean: -4.02 (active)

With Mtbp #4, what does the deposit list?
TNF reporter z-score, mean: 4.51 (active)

With Mtbp #5, how do the results read?
TNF reporter z-score, mean: 2.36 (active)

For Mtbp #6, how do the results read?
TNF reporter z-score, mean: -0.511

With Ca9 #1, how do the results read?
TNF reporter z-score, mean: -0.551

What did the screen give for Ca9 #2?
TNF reporter z-score, mean: -2.75 (active)

With Ca9 #3, what does the deposit list?
TNF reporter z-score, mean: -3.45 (active)

With Ca9 #4, what was measured?
TNF reporter z-score, mean: 1.74

With Ca9 #5, what was measured?
TNF reporter z-score, mean: -1.57

For Ca9 #6, how do the results read?
TNF reporter z-score, mean: -2.66 (active)

What is on record for Aqp7 #1?
TNF reporter z-score, mean: -2.4 (active)

With Aqp7 #2, how do the results read?
TNF reporter z-score, mean: -3.61 (active)

How did the screen score Aqp7 #3?
TNF reporter z-score, mean: -3.63 (active)

What did the screen give for Aqp7 #4?
TNF reporter z-score, mean: 3.1 (active)

How did the screen score Aqp7 #5?
TNF reporter z-score, mean: -0.806

Which result is listed for Aqp7 #6?
TNF reporter z-score, mean: -2.37 (active)

What is on record for Or12e9 #1?
TNF reporter z-score, mean: -1.52

What did the screen give for Or12e9 #2?
TNF reporter z-score, mean: -3 (active)

For Or12e9 #3, how do the results read?
TNF reporter z-score, mean: -5.32 (active)

For Or12e9 #4, what was measured?
TNF reporter z-score, mean: 1.73

Which result is listed for Or12e9 #5?
TNF reporter z-score, mean: -0.781

What did the screen give for Or12e9 #6?
TNF reporter z-score, mean: -2.48 (active)

For Or5w15 #1, what does the deposit list?
TNF reporter z-score, mean: -1.64

For Or5w15 #2, what was measured?
TNF reporter z-score, mean: -2.84 (active)

Which result is listed for Or5w15 #3?
TNF reporter z-score, mean: -5.46 (active)

What is on record for Or5w15 #4?
TNF reporter z-score, mean: 2.3 (active)

How did the screen score Or5w15 #5?
TNF reporter z-score, mean: 1.33

How did the screen score Or5w15 #6?
TNF reporter z-score, mean: -0.808

What did the screen give for Dnajc27 #1?
TNF reporter z-score, mean: -0.369

With Dnajc27 #2, how do the results read?
TNF reporter z-score, mean: -2.39 (active)

Which result is listed for Dnajc27 #3?
TNF reporter z-score, mean: -4.05 (active)

How did the screen score Dnajc27 #4?
TNF reporter z-score, mean: 4.01 (active)

What did the screen give for Dnajc27 #5?
TNF reporter z-score, mean: 0.186

What is on record for Dnajc27 #6?
TNF reporter z-score, mean: -2.53 (active)

With Akt1s1 #1, how do the results read?
TNF reporter z-score, mean: -1.12

How did the screen score Akt1s1 #2?
TNF reporter z-score, mean: -3.07 (active)

For Akt1s1 #3, what was measured?
TNF reporter z-score, mean: -4.11 (active)

With Akt1s1 #4, how do the results read?
TNF reporter z-score, mean: 3.13 (active)

What is on record for Akt1s1 #5?
TNF reporter z-score, mean: 3.46 (active)

What did the screen give for Akt1s1 #6?
TNF reporter z-score, mean: -1.28

Reformatted: entries from further up
Mtbp #3
- TNF reporter z-score, mean: -4.02 (active)

Mtbp #4
- TNF reporter z-score, mean: 4.51 (active)

Mtbp #5
- TNF reporter z-score, mean: 2.36 (active)

Mtbp #6
- TNF reporter z-score, mean: -0.511

Ca9 #1
- TNF reporter z-score, mean: -0.551

Ca9 #2
- TNF reporter z-score, mean: -2.75 (active)

Ca9 #3
- TNF reporter z-score, mean: -3.45 (active)
